{"source": "patent US9487546B2", "about": "“Solid forms of tenofovir” (Gilead Sciences, Inc., priority 2014, dated 2016)", "assay": "Filtration time in the plant demonstration", "data": [{"smiles": "C[C@H](Cn1cnc2c(N)ncnc21)OCP(=O)(O)O", "note": "[Form 2431-HC-1P]", "values": [{"measurement": "Filtration Time", "setting": "plant demonstration, 146 kg starting material input", "value": 11, "unit": "h"}, {"measurement": "filtration time relative to average filtration time of the 40 batches", "setting": "plant scale, contract manufacturing organization", "value": "approximately ⅓"}]}]}
